Test results: patent publication US20040058393A1 (published 2004)
No constants are given. Whether binding was seen depends on the method and setting. Some binding calls cover weakened binding; strength is not graded here.

Protein sequences, listed by entry. Tags and fused reporters are not part of them. Residues count along the entry.
UniProt Q08722, residues 19-323: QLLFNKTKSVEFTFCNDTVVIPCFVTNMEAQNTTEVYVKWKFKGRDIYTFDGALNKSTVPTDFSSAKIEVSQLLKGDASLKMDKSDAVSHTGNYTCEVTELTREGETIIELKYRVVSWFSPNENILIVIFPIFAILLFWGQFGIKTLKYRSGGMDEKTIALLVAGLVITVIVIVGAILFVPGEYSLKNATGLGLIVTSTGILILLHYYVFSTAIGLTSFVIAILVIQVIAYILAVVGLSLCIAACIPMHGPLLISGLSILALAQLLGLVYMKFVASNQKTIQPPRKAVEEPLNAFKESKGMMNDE

B1: MABL2-scFv <LH-4> (scFv)
scFv: DVVMTQSPLSLPVSLGDQASISCRSSQSLVHSNGKTYLHWYLQKPGQSPKLLIYKVSNRFSGVPDRFSGSGSVTDFTLMISRVEAEDLGVYFCSQSTHVPYTFGGGTKLEIKSGGGQVQLQQSGPELVKPGASVKMSCKASGYTFANHVIHWVKQKPGQGLEWIGYIYPYNDGTKYNEKFKDKATLTSDKSSTTAYMDLSSLASEDSAVYYCARGGYYTYDDWGQGTTLTVSSDYKDDDDK
B2: MABL2-scFv <HL-5> (COS7 culture supernatant) (scFv)
scFv: QVQLQQSGPELVKPGASVKMSCKASGYTFANHVIHWVKQKPGQGLEWIGYIYPYNDGTKYNEKFKDKATLTSDKSSTTAYMDLSSLASEDSAVYYCARGGYYTYDDWGQGTTLTVSSGGGGSDVVMTQSPLSLPVSLGDQASISCRSSQSLVHSNGKTYLHWYLQKPGQSPKLLIYKVSNRFSGVPDRFSGSGSVTDFTLMISRVEAEDLGVYFCSQSTHVPYTFGGGTKLEIKDYKDDDDK
B3: MABL2-scFv <LH-6> (scFv)
scFv: DVVMTQSPLSLPVSLGDQASISCRSSQSLVHSNGKTYLHWYLQKPGQSPKLLIYKVSNRFSGVPDRFSGSGSVTDFTLMISRVEAEDLGVYFCSQSTHVPYTFGGGTKLEIKSGGGGGQVQLQQSGPELVKPGASVKMSCKASGYTFANHVIHWVKQKPGQGLEWIGYIYPYNDGTKYNEKFKDKATLTSDKSSTTAYMDLSSLASEDSAVYYCARGGYYTYDDWGQGTTLTVSSDYKDDDDK
B4: MABL2-scFv <LH-3> (scFv)
scFv: DVVMTQSPLSLPVSLGDQASISCRSSQSLVHSNGKTYLHWYLQKPGQSPKLLIYKVSNRFSGVPDRFSGSGSVTDFTLMISRVEAEDLGVYFCSQSTHVPYTFGGGTKLEIKSGGQVQLQQSGPELVKPGASVKMSCKASGYTFANHVIHWVKQKPGQGLEWIGYIYPYNDGTKYNEKFKDKATLTSDKSSTTAYMDLSSLASEDSAVYYCARGGYYTYDDWGQGTTLTVSSDYKDDDDK
B5: MABL2-scFv <HL-7> (scFv)
scFv: QVQLQQSGPELVKPGASVKMSCKASGYTFANHVIHWVKQKPGQGLEWIGYIYPYNDGTKYNEKFKDKATLTSDKSSTTAYMDLSSLASEDSAVYYCARGGYYTYDDWGQGTTLTVSSGGGGGGSDVVMTQSPLSLPVSLGDQASISCRSSQSLVHSNGKTYLHWYLQKPGQSPKLLIYKVSNRFSGVPDRFSGSGSVTDFTLMISRVEAEDLGVYFCSQSTHVPYTFGGGTKLEIKDYKDDDDK
B6: MABL2-scFv <HL-4> (scFv)
scFv: QVQLQQSGPELVKPGASVKMSCKASGYTFANHVIHWVKQKPGQGLEWIGYIYPYNDGTKYNEKFKDKATLTSDKSSTTAYMDLSSLASEDSAVYYCARGGYYTYDDWGQGTTLTVSSGGGSDVVMTQSPLSLPVSLGDQASISCRSSQSLVHSNGKTYLHWYLQKPGQSPKLLIYKVSNRFSGVPDRFSGSGSVTDFTLMISRVEAEDLGVYFCSQSTHVPYTFGGGTKLEIKDYKDDDDK
B7: MABL2-scFv <LH-7> (scFv)
scFv: DVVMTQSPLSLPVSLGDQASISCRSSQSLVHSNGKTYLHWYLQKPGQSPKLLIYKVSNRFSGVPDRFSGSGSVTDFTLMISRVEAEDLGVYFCSQSTHVPYTFGGGTKLEIKSGGGGGGQVQLQQSGPELVKPGASVKMSCKASGYTFANHVIHWVKQKPGQGLEWIGYIYPYNDGTKYNEKFKDKATLTSDKSSTTAYMDLSSLASEDSAVYYCARGGYYTYDDWGQGTTLTVSSDYKDDDDK
B8: MABL2-scFv <LH-5> (scFv)
scFv: DVVMTQSPLSLPVSLGDQASISCRSSQSLVHSNGKTYLHWYLQKPGQSPKLLIYKVSNRFSGVPDRFSGSGSVTDFTLMISRVEAEDLGVYFCSQSTHVPYTFGGGTKLEIKSGGGGQVQLQQSGPELVKPGASVKMSCKASGYTFANHVIHWVKQKPGQGLEWIGYIYPYNDGTKYNEKFKDKATLTSDKSSTTAYMDLSSLASEDSAVYYCARGGYYTYDDWGQGTTLTVSSDYKDDDDK
B9: MABL2-scFv <HL-3> (scFv)
scFv: QVQLQQSGPELVKPGASVKMSCKASGYTFANHVIHWVKQKPGQGLEWIGYIYPYNDGTKYNEKFKDKATLTSDKSSTTAYMDLSSLASEDSAVYYCARGGYYTYDDWGQGTTLTVSSGGSDVVMTQSPLSLPVSLGDQASISCRSSQSLVHSNGKTYLHWYLQKPGQSPKLLIYKVSNRFSGVPDRFSGSGSVTDFTLMISRVEAEDLGVYFCSQSTHVPYTFGGGTKLEIKDYKDDDDK
B10: MABL2-scFv <HL-6> (scFv)
scFv: QVQLQQSGPELVKPGASVKMSCKASGYTFANHVIHWVKQKPGQGLEWIGYIYPYNDGTKYNEKFKDKATLTSDKSSTTAYMDLSSLASEDSAVYYCARGGYYTYDDWGQGTTLTVSSGGGGGSDVVMTQSPLSLPVSLGDQASISCRSSQSLVHSNGKTYLHWYLQKPGQSPKLLIYKVSNRFSGVPDRFSGSGSVTDFTLMISRVEAEDLGVYFCSQSTHVPYTFGGGTKLEIKDYKDDDDK

Molecular target: human Integrin Associated Protein (IAP) expressed on mouse leukemia cell line L1210 (human) (UniProt Q08722)
Experiment: flow cytometry, COS7 supernatant on hIAP/L1210 cells

binding	Binder
binds	B1
binds	B2
binds	B3
binds	B4
binds	B5
binds	B6
binds	B7
binds	B8
binds	B9
binds	B10

Molecular target: human Integrin Associated Protein (IAP) expressed on mouse leukemia cell line L1210 (human) (UniProt Q08722)
Experiment: flow cytometry, COS7 supernatant on hIAP/L1210 cells, anti-FLAG and FITC anti-mouse IgG

binding	Binder
binds	B1
binds	B2
binds	B3
binds	B4
binds	B5
binds	B6
binds	B7
binds	B8
binds	B9
binds	B10
